From patent US9249306B2, “Quenched dendrimeric dyes for florescence detection” (Carnegie Mellon University, priority 2009, dated 2016)

What was measured:
[1] = Donor array fluorescence of Cy3-labeled cystamine core PAMAM dendrimers; type: physicochemical; conditions: per-dye quantum efficiency relative to free dye
Description: To test the impact of high loading on donor array fluorescence, two cystamine core PAMAM dendrimers (Gen2-16 NH2 and Gen3-32 NH2) were labeled with an excess of monoreactive Cy3-NHS ester. After removal of excess dye by gel filtration the resulting macromolecules were analyzed by electrophoresis, and found to have low net mobility. Because each Cy3 molecule carries one net negative charge, a fully modified dendron should have a net charge of −2. […] However, these conjugates allow for the assessment of the potential risk of donor quenching.

L5-MG E52D [2] = type: physicochemical, human; conditions: soluble dyedron/L5-MG E52D complex
[3] = Fluorescence of free (unbound) dyedron in solution; conditions: total absorbance normalized fluorescence (530-800 nm) of dyedron divided by that of Cy3.29
L5-MG E52D [4] = type: physicochemical, human; conditions: L5-MG E52D activated dyedron
Description: Fluoromodules were assembled as above, and quantum yields based on the acceptor MG excitation band were determined as described using Cy5.18 as the calibration dye (Szent-Gyorgyi, C., et al., Nature Biotechnology 2008, 26, 235-240). Quantum yields determined with 620 nm excitation (Table 2) were essentially the same as unreported quantum yields determined with 590 nm excitation (<5% difference).

L5-MG E52D [5] = type: physicochemical, human; conditions: PBS+

Row | Compound | F dendrimer / F free [1] | F532/F635 (L5-MG E52D [2]) | Fquenched/Ffree [3] | ε × φ/10^3 (brightness) (L5-MG E52D [4]) | factor increase of MG band absorbance when binding to L5-MG E52D (L5-MG E52D [5]) | factor increase of MG band absorbance when binding to L5-MG E52D (L5-MG E52D [5]; listed as MG-2p)
1 | CCN1/C(=C\C=C\C2=[N+](CCCCCC(=O)O)c3ccc(S(=O)(=O)O)cc3C2(C)C)C(C)(C)c2cc(S(=O)(=O)[O-])ccc21 [Cy3] | 1 |  |  |  |  | 
2 | CC[N+]1=C(/C=C/C=C2/N(CCCCCC(=O)NCC(CNC(=O)CCCCCN3/C(=C/C=C/C4=[N+](CC)c5ccc(S(=O)(=O)O)cc5C4(C)C)C(C)(C)c4cc(S(=O)(=O)[O-])ccc43)OCC(=O)NCCCOc3ccc(C(=C4C=CC(=[N+](C)C)C=C4)c4ccc(N(C)C)cc4)cc3)c3ccc(S(=O)(=O)[O-])cc3C2(C)C)C(C)(C)c2cc(S(=O)(=O)[O-])ccc21 (stereo not drawn) [BCM] |  | 2.86 | 0.0036 | 14 | 1.93 | 
3 | CN(C)c1ccc(C(=C2C=CC(=[N+](C)C)C=C2)c2ccc(OCCCC(=O)NCCNC(=O)CCC(=O)NCCOCCOCCN)cc2)cc1 [M, malachite green diethyleneglycolamine] |  | 0.05 |  | 4.4 |  | 1.56 and ~2
4 | CCN1/C(=C\C=C\C2=[N+](CCCCCC(=O)NCCNC(=O)CCCOc3ccc(C(=C4C=CC(=[N+](C)C)C=C4)c4ccc(N(C)C)cc4)cc3)c3ccc(S(=O)(=O)[O-])cc3C2(C)C)C(C)(C)c2cc(S(=O)(=O)[O-])ccc21 [CM, 1-{6-[(2-{[4-(4-{[4-(dimethylamino)phenyl][4-(dimethyliminio)cyclohexa-2,5-dien-1-ylidene]methyl}phenoxy)butanoyl]amino}ethyl)amino]-6-oxohexyl}-2-[(1E,3Z)-3-(1-ethyl-3,3-dimethyl-5-sulfonato-1,3-dihydro-2H-indol-2-ylidene)prop-1-en-1-yl]-3,3-dimethyl-3H-indolium-5-sulfonate] |  | 1.54 | 0.0084 | 8.0 | 1.78 | 

Several values for one entry are separate records, joined by “and”; a condition that tells them apart may be missing. Equal entries are not always repeated. Where two headings read alike, the source gives them in different places.
